Experimental data taken from patent US6544502B2, “Skin treatment with a water soluble antibiotic dissolved in an electrolyzed water” (Wasatch Pharmaceutical Inc., priority 1992, dated 2003).
At least one structure is not confirmed: it was looked up by name or label, or the drawing left a doubt.

Test system: acne
Experiment: Clinical treatment of acne patients with topically applied aqueous antibiotic solution (Examples I-III)
Format: in vivo, human
Conditions: two years after clinical trials; acne and eczema patients, no longer using the active ingredient

With `C[C@H]1c2cccc(O)c2C(=O)C2=C(O)[C@]3(O)C(=O)C(C(N)=O)=C(O)[C@@H](N(C)C)[C@@H]3[C@@H](O)[C@@H]21` [doxycycline] the “symptom status at medical audit” value was “all remained free of symptoms”.
